These results are taken from publication PMC7819943, “Rice protein-binding microarrays: a tool to detect cis-acting elements near promoter regions in rice”.

Amino acid sequences for entries named in this document (tags omitted).
UniProt Q0JBA9, entry or part of it: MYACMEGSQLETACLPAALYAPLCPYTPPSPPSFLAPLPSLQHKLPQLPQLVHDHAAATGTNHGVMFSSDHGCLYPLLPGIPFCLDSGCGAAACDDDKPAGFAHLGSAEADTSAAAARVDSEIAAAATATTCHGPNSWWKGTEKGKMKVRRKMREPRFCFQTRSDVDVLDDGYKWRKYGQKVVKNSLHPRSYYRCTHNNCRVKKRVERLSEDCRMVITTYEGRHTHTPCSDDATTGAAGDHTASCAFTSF

The other results are listed elsewhere or left out.

The assay addresses OsWRKY34 (Oryza sativa, UniProt Q0JBA9 1-250). The assay is described as follows: protein-binding microarray (RPBM); PBS, 2% BSA, 51.3 ng/ul salmon testes DNA, 50 uM zinc acetate, 200 nM TF, 25 C, 1 h; high values mean tight binding. To be noted: protein: recombinant; tags: N-terminal polyhistidine and DsRed monomer fusion (pET32a); label: CyDye5-dUTP incorporated in the synthesized complementary strand; 3' TTTTT single-stranded linker to array surface; dsDNA, one strand shown. The procedure, abridged: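 The binding signal for each feature is its fluorescence intensity in arbitrary units. An Axon 4000B scanner was used to read a custom Agilent array that had been made double-stranded with Cy5-dUTP primer extension, blocked with 2% BSA, incubated at 25 °C for 1 h with 200 nM protein in PBS, 2% BSA, salmon testes DNA and 50 µM zinc acetate, and washed. The protein was an N-terminal polyhistidine–DsRed transcription factor fusion from E. coli BL21-CodonPlus, purified on Ni–NTA.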
For the sequence “CAAAAGCACTGGTATACTCCCTTCAACCTTTTCTTTTAAGCGGAGTCACCTAGTGCAG”, the binding signal was 8400 fluorescence intensity (a.u.).

Regarding “TGCATCCACTTGCACCATCGCACCCGGTTTTTTACTGTGACGGAGTCACCTAGTGCAG”, the binding signal was 10500 fluorescence intensity (a.u.). As to “CGCCCGCTCCGCCGCATGCATGCATCCATACATTAAAACTCGGAGTCACCTAGTGCAG”, the binding signal is 8050 fluorescence intensity (a.u.).

Consider “CCTGCCATGTCATGTTTGTACCTAGATACCAGGTATGACGCGGAGTCACCTAGTGCAG”, for which the binding signal is 8960 fluorescence intensity (a.u.). “ACATTTCTGTTATTCCCCGCGGACAAGTCACAACTACTTCCGGAGTCACCTAGTGCAG”: the binding signal is 9830 fluorescence intensity (a.u.). On to “TCACCTCGTTTTTCTGTTATGGGTGTGAGTAACCTTGATCCGGAGTCACCTAGTGCAG”, for which the binding signal is 9250 fluorescence intensity (a.u.). Regarding “GCGTTGGTTTTATGTTATACTCTGCCTTTCCAAATCATTTCGGAGTCACCTAGTGCAG”, the binding signal is 9600 fluorescence intensity (a.u.). As to “GATATCCGTGTTCTTCTCTGACCGAATCCGAATCCCGCGTCGGAGTCACCTAGTGCAG”, the binding signal was 9760 fluorescence intensity (a.u.).

As to “AAATGCAGACACTCATAACACATATACTCAACGCATATATCGGAGTCACCTAGTGCAG”, the binding signal was 8600 fluorescence intensity (a.u.). Then “CACATTTTCTTCTTATCTTGTTGCTCACTTGTTCTGTTCTCGGAGTCACCTAGTGCAG”, with 9020 fluorescence intensity (a.u.); and “TTTCGCCGGCCGCGGATTGACACCCAAATTTATAGAGCATCGGAGTCACCTAGTGCAG”, with 8510 fluorescence intensity (a.u.); and “ACCGCCTTTTTTGCCACCTTTGTAGCGCCGTCTACCATTGCGGAGTCACCTAGTGCAG”, with 10700 fluorescence intensity (a.u.). The result for “CTCGTTTCGTGTGCGCCGCGCGGCTGCTGCTGCTGCTTTCCGGAGTCACCTAGTGCAG” reads 9080 fluorescence intensity (a.u.).

“CAAATATATATTTTTACTTTCACTTTTAGTCCCTTGTAGCCGGAGTCACCTAGTGCAG”: the binding signal was 8700 fluorescence intensity (a.u.). In the case of “GTTTCTTGGTCGTGGGGTCGAGGAGGTGGTGGGTGGTGGTCGGAGTCACCTAGTGCAG”, the binding signal was 14800 fluorescence intensity (a.u.). As for “AAAAAACACTATTTTTGCAATTAATTTCTCTGCACACTCACGGAGTCACCTAGTGCAG”, the binding signal is 8590 fluorescence intensity (a.u.).

“CATCTGTTTACTTTGTCTTGTTAACTCTCTTGCCACATCACGGAGTCACCTAGTGCAG”: the binding signal was 11100 fluorescence intensity (a.u.).

For “TCATCGAGCGAACGCCCGTGGGCCGTTGGCCGTTGACTGCCGGAGTCACCTAGTGCAG”, the binding signal is 9810 fluorescence intensity (a.u.). Then “CTCCTCTTTGACCTCGCTATCTATCCATCTACTGCAGTTTCGGAGTCACCTAGTGCAG”, with 11400 fluorescence intensity (a.u.); and “CATTTGAACCTTGTGGCTTTATTGTGCTCCGACGTTTTAACGGAGTCACCTAGTGCAG”, with 8950 fluorescence intensity (a.u.); and “ACTTCTACCTTTCGTTTTTCCACGCGCATATGCTTTTTGACGGAGTCACCTAGTGCAG”, with 20300 fluorescence intensity (a.u.). Turning to “TCTGTTGCTTTGCTTTGCTTCGGTTAGCTTCTTTCACAGCCGGAGTCACCTAGTGCAG”, the binding signal was 8100 fluorescence intensity (a.u.). Turning to “TTGTCACTGCATTTACCTTCAGACTTTTTTCCCCTTGAAACGGAGTCACCTAGTGCAG”, the binding signal is 8920 fluorescence intensity (a.u.). For the sequence “CTCCGTATCTAACCATTCATCCCTTCCTCACTCCGTTTTTCGGAGTCACCTAGTGCAG”, the binding signal is 8500 fluorescence intensity (a.u.). Then “GGAGTTCGTGGGGACGTTCATCCTCATCTTCTTCGCGACGCGGAGTCACCTAGTGCAG”, with 9260 fluorescence intensity (a.u.); and “GGCTTGCTTTGCTGTTGCCGTTGTTTTGCTTTGCCTTGCCCGGAGTCACCTAGTGCAG”, with 9230 fluorescence intensity (a.u.); and “TTACACTTGTTTCGTCTCATCTCTCGTGTCCCCTCACTTCCGGAGTCACCTAGTGCAG”, with 9260 fluorescence intensity (a.u.). With “GCGACCAAATCCCCATCCCCACCACTCTGCACTTCCGCTACGGAGTCACCTAGTGCAG”, the binding signal was 8190 fluorescence intensity (a.u.). Consider “TCCGTCTCTACTTGCCTGCCATTTTTGTCACATAAACCCTCGGAGTCACCTAGTGCAG”, for which the binding signal was 13200 fluorescence intensity (a.u.). “TTTAGATTTATTTTTTGTGACATAGGGAGTACTTTTTTTTCGGAGTCACCTAGTGCAG”: the binding signal is 9200 fluorescence intensity (a.u.). Consider “TAGTTGGCGCTTGGGTTTGGGGTTTCGTTTCGTGTCCCAACGGAGTCACCTAGTGCAG”, for which the binding signal was 15900 fluorescence intensity (a.u.). On to “AACCGGCAGTAGTACCAATGATGCACCTTTGCACCAGTTTCGGAGTCACCTAGTGCAG”, for which the binding signal was 9450 fluorescence intensity (a.u.).

“CTTTGGTCTGCACTGACACTTTGTTCTTGCTGCATTTCTTCGGAGTCACCTAGTGCAG”: the binding signal was 9040 fluorescence intensity (a.u.). With “GATTTGGTTCTCTCCAGTATCTATCTCATGTTCACTTGCCCGGAGTCACCTAGTGCAG”, the binding signal was 9400 fluorescence intensity (a.u.).

Turning to “GAGTTCGGCCTTTCCGGTTTCCGGTTGTGTTGTGAGGAGTCGGAGTCACCTAGTGCAG”, the binding signal was 10600 fluorescence intensity (a.u.). “TTCCTTTTCTGCGTCACTGGTAGTTACAGTATTTTGGCTACGGAGTCACCTAGTGCAG”: the binding signal was 10100 fluorescence intensity (a.u.). Regarding “CGTCTCTCCCGATCCGTCCCATCAAAAAGCAACACCAATACGGAGTCACCTAGTGCAG”, the binding signal was 8530 fluorescence intensity (a.u.). Regarding “TTATCTTCTTTTATTATGTTTGATCTTCTTTTGTTCGATACGGAGTCACCTAGTGCAG”, the binding signal was 9330 fluorescence intensity (a.u.).

With “TCGATGGGTGGGCTTGGGCTGACAAACAATCACACTCTCGCGGAGTCACCTAGTGCAG”, the binding signal was 8290 fluorescence intensity (a.u.).

For the sequence “AATTTTACCCCTCATATCTACTATTCTTCCGTGCAATTTTCGGAGTCACCTAGTGCAG”, the binding signal was 9530 fluorescence intensity (a.u.). “TCTCTCATTTCTCTCTCTCATCACACGGACGCAATGCAAACGGAGTCACCTAGTGCAG”: the binding signal is 9150 fluorescence intensity (a.u.). Regarding “TCCAAACTCCAAAGCCCTTTGCTCTAGCTATTTCTTTTTGCGGAGTCACCTAGTGCAG”, the binding signal is 8540 fluorescence intensity (a.u.).
